The values that follow come from paper doi:10.64898/2025.12.17.694812.

No constants are given. Whether binding was seen depends on the method and setting. Some binding calls cover weakened binding; strength is not graded here. Where a sequence is shown, tags or fusion partners need not be part of it.

What all share (assay): native gel or EMSA
Background: In EMSA bound probe runs differently from free probe, usually more slowly.

The target in assay [1] is WT Roq1-Flag.
The target in assay [2] is Roq1_(A455Q)-Flag.
Assay [3] has as its target Roq1_(A455N)-Flag.
Assay [4] has as its target NbNRG1 (WT NRG1, C-terminal YFP-HA) (N. benthamiana) (UniProt Q4TVR0).

B1: WT Roq1-Flag (receptor, UniProt A0A290U7C4 1-1306)
chain: MLTSSSHHGRSYDVFLSFRGEDTRKTFVGHLFNALIEKGIHTFMDDKELKRGKSISSELMKAIGESRFAVVVFSKNYASSTWCLEELVKILEIHEKFELIVVPVFYDVDPSTVRKQNGEYAVCFTKFEANLVDDRDKVLRWREALTKVANISGHDLRNTYNGDESKCIQQILKDIFDKFCFSISITNRDLVGIESQIKKLSSLLRMDLKGVRLVGIWGMGGVGKTTAARALFNRYYQNFESACFLEDVKEYLQHHTLLYLQKTLLSKLLKVEFVDCTDTEEMCVILKRRLCSKKVLVVLDDVNHNDQLDKLVGAEDWFGSGSRIVITTRDMKLLKNHDVHETYEIKVLEKDEAIELFNLHAFKRSSPEKEFKELLNLVVDYTGGLPLALKVLGSLLYKEDLDVWISTIDRLKDNPEGEIMATLKISFDGLRDYEKSIFLDIACFFRGYNQRDMTALFHASGFHPVLGVKTLVEKSLIFILEDKIQMHDLMQEMGRQIAVQESPMRRIYRPEDVKDACIGDMRKEAIEGLLLTEPEQFEEGELEYMYSAEALKKTRRLRILVKEYYNRGFDEPVAYLPNSLLWLEWRNYSSNSFPSNFEPSKLVYLTMKGSSIIELWNGAKRLAFLTTLDLSYCHKLIQTPDFRMITNLERLILSSCDALVEVHPSVGFLKNLILLNMDHCISLERLPAIIQSECLEVLDLNYCFNLKMFPEVERNMTHLKKLDLTSTGIRELPASIEHLSSLENLQMHSCNQLVSLPSSIWRFRNLKISECEKLGSLPEIHGNSNCTRELILKLVSIKELPTSIGNLTSLNFLEICNCKTISSLSSSIWGLTSLTTLKLLDCRKLKNLPGIPNAINHLSGHGLQLLLTLEQPTIYERLDLLRIIDMSWCSCISSLPHNIWMLKFLRILCISYCSRLEYLPENLGHLEHLEELLADGTGILRLPSSVARLNKLEVLSFRKKFAIGPKVQYSSSMLNLPDDVFGSLGSLGSVVKLNLSGNGFCNLPETMNQLFCLEYLDITFCQRLEALPELPPSIKELYVDEHLALRIMEDLVIKCKELNLIAVTKIEYQNFYRWLDSIWSDVSELLENSQKQQLDDMLQLIPFSYLSTAKREEVLKIVIHGTRIPEWFRWQDRSATTMSVNLPEYWYTENFLGFAICCSCCFYHSARSYDVEFEGSMHHYNYDSSYWKEYEEPSYDFYERDSIEITAKLTPRHKGMRTEELKKVCSFSMNVLRRATAVPNMCFAFFPFNSLCHISNLQANNPNDYGIFETCLSPGDIRHRGKQWGFNLVYKDETGGSVTHEMLINR
In the case of B1, in assay [1], the binding entry is recorded as “binds”.

B2: Roq1_(A455Q)-Flag (receptor, UniProt A0A290U7C4 1-1306)
chain: MLTSSSHHGRSYDVFLSFRGEDTRKTFVGHLFNALIEKGIHTFMDDKELKRGKSISSELMKAIGESRFAVVVFSKNYASSTWCLEELVKILEIHEKFELIVVPVFYDVDPSTVRKQNGEYAVCFTKFEANLVDDRDKVLRWREALTKVANISGHDLRNTYNGDESKCIQQILKDIFDKFCFSISITNRDLVGIESQIKKLSSLLRMDLKGVRLVGIWGMGGVGKTTAARALFNRYYQNFESACFLEDVKEYLQHHTLLYLQKTLLSKLLKVEFVDCTDTEEMCVILKRRLCSKKVLVVLDDVNHNDQLDKLVGAEDWFGSGSRIVITTRDMKLLKNHDVHETYEIKVLEKDEAIELFNLHAFKRSSPEKEFKELLNLVVDYTGGLPLALKVLGSLLYKEDLDVWISTIDRLKDNPEGEIMATLKISFDGLRDYEKSIFLDIACFFRGYNQRDMTQLFHASGFHPVLGVKTLVEKSLIFILEDKIQMHDLMQEMGRQIAVQESPMRRIYRPEDVKDACIGDMRKEAIEGLLLTEPEQFEEGELEYMYSAEALKKTRRLRILVKEYYNRGFDEPVAYLPNSLLWLEWRNYSSNSFPSNFEPSKLVYLTMKGSSIIELWNGAKRLAFLTTLDLSYCHKLIQTPDFRMITNLERLILSSCDALVEVHPSVGFLKNLILLNMDHCISLERLPAIIQSECLEVLDLNYCFNLKMFPEVERNMTHLKKLDLTSTGIRELPASIEHLSSLENLQMHSCNQLVSLPSSIWRFRNLKISECEKLGSLPEIHGNSNCTRELILKLVSIKELPTSIGNLTSLNFLEICNCKTISSLSSSIWGLTSLTTLKLLDCRKLKNLPGIPNAINHLSGHGLQLLLTLEQPTIYERLDLLRIIDMSWCSCISSLPHNIWMLKFLRILCISYCSRLEYLPENLGHLEHLEELLADGTGILRLPSSVARLNKLEVLSFRKKFAIGPKVQYSSSMLNLPDDVFGSLGSLGSVVKLNLSGNGFCNLPETMNQLFCLEYLDITFCQRLEALPELPPSIKELYVDEHLALRIMEDLVIKCKELNLIAVTKIEYQNFYRWLDSIWSDVSELLENSQKQQLDDMLQLIPFSYLSTAKREEVLKIVIHGTRIPEWFRWQDRSATTMSVNLPEYWYTENFLGFAICCSCCFYHSARSYDVEFEGSMHHYNYDSSYWKEYEEPSYDFYERDSIEITAKLTPRHKGMRTEELKKVCSFSMNVLRRATAVPNMCFAFFPFNSLCHISNLQANNPNDYGIFETCLSPGDIRHRGKQWGFNLVYKDETGGSVTHEMLINR
Consider B2, for which the binding entry in assay [2] is “binds”.

B3: Roq1_(A455N)-Flag (receptor, UniProt A0A290U7C4 1-1306)
chain: MLTSSSHHGRSYDVFLSFRGEDTRKTFVGHLFNALIEKGIHTFMDDKELKRGKSISSELMKAIGESRFAVVVFSKNYASSTWCLEELVKILEIHEKFELIVVPVFYDVDPSTVRKQNGEYAVCFTKFEANLVDDRDKVLRWREALTKVANISGHDLRNTYNGDESKCIQQILKDIFDKFCFSISITNRDLVGIESQIKKLSSLLRMDLKGVRLVGIWGMGGVGKTTAARALFNRYYQNFESACFLEDVKEYLQHHTLLYLQKTLLSKLLKVEFVDCTDTEEMCVILKRRLCSKKVLVVLDDVNHNDQLDKLVGAEDWFGSGSRIVITTRDMKLLKNHDVHETYEIKVLEKDEAIELFNLHAFKRSSPEKEFKELLNLVVDYTGGLPLALKVLGSLLYKEDLDVWISTIDRLKDNPEGEIMATLKISFDGLRDYEKSIFLDIACFFRGYNQRDMTNLFHASGFHPVLGVKTLVEKSLIFILEDKIQMHDLMQEMGRQIAVQESPMRRIYRPEDVKDACIGDMRKEAIEGLLLTEPEQFEEGELEYMYSAEALKKTRRLRILVKEYYNRGFDEPVAYLPNSLLWLEWRNYSSNSFPSNFEPSKLVYLTMKGSSIIELWNGAKRLAFLTTLDLSYCHKLIQTPDFRMITNLERLILSSCDALVEVHPSVGFLKNLILLNMDHCISLERLPAIIQSECLEVLDLNYCFNLKMFPEVERNMTHLKKLDLTSTGIRELPASIEHLSSLENLQMHSCNQLVSLPSSIWRFRNLKISECEKLGSLPEIHGNSNCTRELILKLVSIKELPTSIGNLTSLNFLEICNCKTISSLSSSIWGLTSLTTLKLLDCRKLKNLPGIPNAINHLSGHGLQLLLTLEQPTIYERLDLLRIIDMSWCSCISSLPHNIWMLKFLRILCISYCSRLEYLPENLGHLEHLEELLADGTGILRLPSSVARLNKLEVLSFRKKFAIGPKVQYSSSMLNLPDDVFGSLGSLGSVVKLNLSGNGFCNLPETMNQLFCLEYLDITFCQRLEALPELPPSIKELYVDEHLALRIMEDLVIKCKELNLIAVTKIEYQNFYRWLDSIWSDVSELLENSQKQQLDDMLQLIPFSYLSTAKREEVLKIVIHGTRIPEWFRWQDRSATTMSVNLPEYWYTENFLGFAICCSCCFYHSARSYDVEFEGSMHHYNYDSSYWKEYEEPSYDFYERDSIEITAKLTPRHKGMRTEELKKVCSFSMNVLRRATAVPNMCFAFFPFNSLCHISNLQANNPNDYGIFETCLSPGDIRHRGKQWGFNLVYKDETGGSVTHEMLINR
Consider B3, for which the binding entry in assay [3] is given as “binds”.

B4: NbNRG1 (WT NRG1, C-terminal YFP-HA) (receptor, UniProt Q4TVR0 1-850)
chain: MAATLLGGAALGPVFDILLKAVLDVGIKIATFRSKFQSLIKTLNDIKPVFDDIERLNKALDGRDYEIEMFKKQLFAGEELVRKCSKTKCYDALKKWNYSRKLTKLENSLVRFCQVHGFIQVCRDSKIILVNVIEHGKKLDQITSMLRGISLRNGSSIGFTNSNGSSGWMNGNSFGSTNGSGFSGWSDVPQFSDSVVGFDLPLQELKVKLLEEKEKVVVLSAPAGCGKTTLAAMLCQEDDIKDKYRDIFFVTVSKKANIKRIVGEIFEMKGYKGPDFASEHAAVCQLNNLLRRSTSQPVLLVLDDVWSESDFVIESFIFQIPGFKILVTSRSVFPKFDTYKLNLLSEKDAKALFYSSAFKDSIPYVQLDLVHKAVRSCCGFPLALKVVGRSLCGQPELIWFNRVMLQSKRQILFPTENDLLRTLRASIDALDEIDLYSSEATTLRDCYLDLGSFPEDHRIHAAAILDMWVERYNLDEDGMKAMAIFFQLSSQNLVNLALARKDAPAVLGLHNLHYIQQHDLLRELVIHQCDEKTVEERKRLYINIKGNDFPKWWSQQRLQPLQAEVLSIFTDEHFESVWYDVRFPKVEVLVLNFETKTYNFPPFVEQMSQLKTLIVANNYFFPTKLNNFQLCSLLNLKRISLERISVTSIFTANLQLPNLRKISFIMCEIGEAFENYAANMSYMWPKLVEMNIEYCSDLVEVPAETCDLVGLKKLSICYCHELVALPEELGKLSNLEVLRLHSCTNVSKLPESVVKLNRLGFLDVYDCVELDFLPREMDQLCSLRTICMGSRLGFTELPDSVLRLVKLEDVVCDEETASLWEYYKEHLRNLRITVIKEDINLNLLHKSLFI
For the molecule B4, the binding entry in assay [4] is given as “binds”.
